These are yes or no findings as the source states them, for the method shown. Some results given as binding are weak or reduced against the parent protein; the word gives no strength. Values belong to the binder of their own block, whether it stands above or below them.
How the values were obtained:
[1] = target: recombinant HMG1 purified from E. coli as a calmodulin binding protein (CBP) fusion protein (human); test: ELISA format 'Captured HMG1/Soluble Antibody' (triangles): wells coated with HMG1
[2] = target: recombinant HMG1 purified from E. coli as a calmodulin binding protein (CBP) fusion protein (human); test: ELISA format 'Soluble HMG1/Captured Antibody' (squares): antibody captured on anti-human IgG Fc, HMG1 in solution
[3] = target: recombinant HMG1 purified from E. coli as a calmodulin binding protein (CBP) fusion protein (human); test: ELISA, immobilized antibody against immobilized HMG1 format
[4] = target: recombinant HMG1 purified from E. coli as a calmodulin binding protein (CBP) fusion protein (human); test: HMG1 capture ELISA
[5] = target: recombinant HMG1 purified from E. coli as a calmodulin binding protein (CBP) fusion protein (human); test: direct ELISA, wells coated with rHMG1 at 5 ug/ml, anti-human IgG-HRP, OD 450
[6] = target: T1, HMGB1 B-box peptide 91-108 (human); test: ELISA on biotinylated HMGB1 peptides captured on NeutrAvidin, antibody in serial dilution from 10 ug/ml, anti-human IgG-HRP, OD 450
T1 sequence (peptide, biotinylated): DPNAPKRPPSAFFLFCSE

Amino acid sequences for entries named in this document (tags omitted). Residues count along the entry.
UniProt P40673, residues 2-209: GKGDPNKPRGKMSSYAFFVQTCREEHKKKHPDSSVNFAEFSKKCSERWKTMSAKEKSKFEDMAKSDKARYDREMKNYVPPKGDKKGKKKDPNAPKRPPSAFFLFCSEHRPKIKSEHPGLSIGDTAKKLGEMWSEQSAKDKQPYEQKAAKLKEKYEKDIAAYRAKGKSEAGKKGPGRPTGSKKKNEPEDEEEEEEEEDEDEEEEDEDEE
UniProt P09429: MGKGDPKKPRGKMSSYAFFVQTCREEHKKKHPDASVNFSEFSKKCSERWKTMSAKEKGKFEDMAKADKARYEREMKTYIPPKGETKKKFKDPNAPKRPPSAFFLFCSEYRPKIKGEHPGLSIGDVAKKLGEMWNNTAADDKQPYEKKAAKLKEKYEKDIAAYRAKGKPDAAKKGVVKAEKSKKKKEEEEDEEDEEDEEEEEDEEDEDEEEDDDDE

[7] = target: recombinant HMG1 purified from E. coli as a calmodulin binding protein (CBP) fusion protein (human); test: sandwich ELISA: antibody captured on anti-human IgG Fc, rHMG1 2 ug/ml in solution, mouse anti-HMGB1 and anti-mouse IgG-HRP, OD 450
HMG2 [8] = target: HMG2 (UniProt P40673); test: ELISA on coated HMGB2
[9] = target: recombinant HMG1 purified from E. coli as a calmodulin binding protein (CBP) fusion protein (human); test: sandwich ELISA
[10] = target: recombinant HMG1 purified from E. coli as a calmodulin binding protein (CBP) fusion protein (human); test: ELISA, immobilized against soluble rHMG1
HMGB1 peptide 179-186 = target: T2, HMGB1 peptide 179-186 (UniProt P09429); test: ELISA, biotinylated peptides on avidin plate
T2 sequence (peptide, biotinylated, looked up): EKSKKKKE

[11] = target: T1, HMGB1 B-box peptide 91-108 (human); test: ELISA, biotinylated peptides on avidin plate
HMG2 [12] = target: HMG2 (UniProt P40673); test: ELISA, wells coated with HMGB2 at 5 ug/mL, antibody at 10 ug/mL, anti-human kappa/lambda-HRP, OD 490
HMG2 [13] = target: HMG2 (UniProt P40673); test: ELISA on coated HMGB2, antibody 10 ug/mL
[14] = target: HMGB1 in human sepsis sera (human) (UniProt P09429); test: immunoprecipitation and Western blot
[15] = target: recombinant HMG1 purified from E. coli as a calmodulin binding protein (CBP) fusion protein (human); test: sandwich ELISA: antibody (10 ug/ml) captured on anti-human Fc, sample added, mouse anti-HMGB1 and anti-mouse-HRP, OD 450

B1: anti-HMG1 antibody G12 (antibody, V domains shown)
VH: EVQLLESGGGLVQPGGSLRLSCAASGFTFSYYMMTWVRQAPGKGLEWVSSISPSGGYTIYADSAKGRFTISRDNSKNTLYLQMNSLRAEDTAVYYCARALSTGSFWDYWGQGTLVTVSS
VL: DIQMTQSPGTLSLSPGERATLSCRASESLTSTYVAWYQHKPGQAPRLLIHGGSTRATGIPVRFSGSGSGTDFTLTIATLEPEDFAVYYCQQYGSSPYTFGQGTKLEIK
- binding [1]: binds
- binding [2]: binds
- binding [3]: binds

B3: anti-HMG1 antibody G9 (antibody, V domains shown)
VH: EVQLLESGGGLVQPGGSLRLSCAASGFTFSSYDMFWVRQAPGKGLEWVSRISPSGGYTYYADSVKGRFTISRDNSKNTLYLQMNSLRAEDTAVYYCARLRYFDSRGYAFDIWGQGTMVTVSS
VL: DIQMTQSPGTLSLSPGERATLSCRASQSVRSSYLAWYQQKPGQAPRLLIYGASTRATGIPDRFSGSGSGTDFTLTISRLEPEDFAVYYCQQYGTSRWTFGQGTKVEIK
- binding [5]: binds
- binding [1]: binds
- binding [2]: binds
- binding [3]: binds

B4: anti-HMG1 antibody G4 (antibody, V domains shown)
VH: EVQLLESGGGLVQPGGSLRLSCAASGFTFSWYDMTWVRQAPGKGLEWVSSISPSGGYTKYADSVKGRFTISRDNSKNTLYLQMNSLRAEDTAVYYCTTEFYDYLDVWGKGTTVTVSS
VL: DIQMTQSPGTLSLSPGEGATLSCRASQSVSSTYLAWYQQKPGQAPRLLIYEASKRATGTPARFSGSGSGTDFTLSISSLEPEDFAVYYCQHRHNWPPQWTFGQGTKVEVK
- binding [4]: binds
- binding [5]: binds
- binding [1]: binds
- binding [14]: binds
- binding [6]: binds
- binding [2]: binds
- binding [3]: binds
- binding [7]: binds
- binding [15]: binds
- binding [11]: binds

B5: anti-HMG1 antibody E11 (antibody, V domains shown)
VH: EVQLLESGGGLVQPGGSLRLSCAASGFTFSRYQMNWVRQAPGKGLEWVSSISPSGGHTHYADSVKGRFTISRDNSKNTLYLQMNSLRAEDTAVYYCAKDGRQGKISTVDHWGQGTLVTVSS
VL: DIQMTQSPGTLSLSPGERATLSCRASQSVRSNFLAWYQQKPGQAPRLLIYGASRRASGIPDRFSGSGFGADFTLSISRLEPEDFAVYYCQQYGSSPNTFGQGSRVEIK
- binding [2]: binds
- binding [3]: binds
- binding (HMG2 [8]): binds
- binding [10]: binds
- binding (HMG2 [12]): binds
- binding (HMG2 [13]): binds

B9: anti-HMG1 antibody G16 (antibody, V domains shown)
VH: EVQLLESGGGLVQPGGSLRLSCAASGFTFSWYKMTWVRQAPGKGLEWVSSISPSGGFTSYADSVKGRFTISRDNSKNTLYLQMNSLRAEDTAVYYCARDLDIRHAFDIWGQGTMVTVSS
VL: DIQMTQSPGTLSLSPGESGTLSCRASESVSSRHFAWYQQKPGQAPRLLIYGASSRPTGIPDRFSGSGSGTDFTLTLSRLEPEDFAVYFCQYYGSSPYTFGGGTKVEMK
- binding [5]: binds
- binding [10]: binds

Next, values leading:

- binding [4]: binds
- binding [5]: binds
- binding [6]: binds
- binding [7]: binds
- binding (HMG2 [8]): binds
- binding [9]: binds
- binding [10]: binds
- binding (HMGB1 peptide 179-186): binds
- binding [11]: binds
- binding (HMG2 [12]): binds
- binding (HMG2 [13]): binds
B2: anti-HMG1 antibody S16 (antibody, V domains shown)
VH: EVQLLESGGGLVQPGGSLRLSCAASGFTFSWYSMLWVRQAPGKGLEWVSYISPSGGFTNYADSVKGRFTISRDNSKNTLYLQMNSLRAEDTAVYYCARWDYNSGWYYDHWGQGTLVTVSS
VL: DIQMTQSPDTLSLSPGERATLSCRASQSVNSRNLAWYQQKPGQAPRLLIYGASTRATGIPDRFSGSVSGTEFTLTISSLQPDDFATYYCQQYNSYFTFGQGTKLEIK

- binding [4]: binds
- binding [5]: binds
- binding [7]: binds
- binding [9]: binds
- binding [10]: binds
B6: anti-HMG1 antibody S10 (antibody, V domains shown)
VH: EVQLLESGGGLVQPGGSLRLSCAASGFTFSWYDMWWVRQAPGKGLEWVSWIVPSGGITAYADSVKGRFTISRDNSKNTLYLQMNSLRAEDTATYYCARGNYGPSPFDYWGQGTLVTVSS
VL: DIQMTQSPGTLSLSPGERATLSCRATQSVRKNFLAWYQQKPGQAPRLLIYDASSRATGIPDRFSGSGSGTDFTLTISRLEPEDFAVYYCQQYGNSPIIFGQGTRLEIK

- binding [10]: binds
B7: anti-HMG1 antibody G34 (antibody, V domains shown)
VH: EVQLLESGGGLVQPGGSLRLSCAASGFTFSHYMMGWVRQAPGKGLEWVSRISPSGGGTVYADSVKGRFTISRDNSKNTLYLQMNSLRAEDTAVYYCARGGNWNYISYYYYYLDVWGKGTTVTVSS
VL: DIQMTQSPSSLSASVGDRVAITCRASQSIDTYLNWYQQKPGKAPKLLIYAASKLEDGVPSRFSGSGTGTDFTLTIRSLQPEDFASYFCQQSYSSPGITFGPGTKVEIK

- binding [5]: binds
- binding (HMG2 [8]): binds
- binding [10]: binds
- binding (HMG2 [12]): binds
- binding (HMG2 [13]): binds
B8: anti-HMG1 antibody S12 (antibody, V domains shown)
VH: EVQLLESGGGLVQPGGSLRLSCAASGFTFSKYIMHWVRQAPGKGLEWVSGIVPSGGLTEYADSVKGRFTISRDNSKNTLYLQMNSLRAEDTATYYCAKEIFGQFDYWGQGTLVTVSS
VL: AQSALTQPPSVSAAPRQRVTISCSGSTSNIGNNAVTWYQYFPGKAPKLLIYSDNQRPSGVPDRFSGSKSGTSASLAITGLQAEDEADYYCQSYDRGLSVVFGGGTKLTVL
